Percent effect of library compounds

The filed quantity is “Percent Effect” (%).
The controls that fix the scale are not given in the record; negative values are as filed.
This is an unselected part of the compounds tested.
Two or more numbers in one place are separate tests of the same structure; such repeats can differ widely.

Mtb cholesterol medium: 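Growth of Mycobacterium tuberculosis over 4 days (cholesterol / DPPC medium with tyloxapol); the read-out is not stated. Tested at 50 µM. Higher reads as more growth inhibition (inferred: compounds with an IC50 in retests scored well above the rest). About 69,000 compounds were tested under these conditions; 0.54% (about 370) showed 50% or more at least once.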
Mtb glucose medium: 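Phenotypic screen: M. tuberculosis growth, glucose 7H9 medium, 3 days; the read-out is not stated. Compounds at 50 µM. Higher reads as more growth inhibition (inferred: compounds with an IC50 in retests scored well above the rest). Size under these conditions: about 69,000 compounds, about 760 of them at 50% or above in at least one test.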

SMILES: Cc1csc(NC(=O)NCCCN2CCC(C(N)=O)CC2)n1
Mtb cholesterol medium: -6.415
Mtb glucose medium: -24.06

SMILES: Cc1ccc(-n2nnc(C(=O)Nc3cc(C)nn3C)c2C2CC2)cc1
Mtb cholesterol medium: -8.975
Mtb glucose medium: -16.09

SMILES: [H][C@@]12COC[C@]1([H])[C@@H](OCC1CCN(C)CC1)CN2C(=O)c1cccn1C
Mtb cholesterol medium: -7.984
Mtb glucose medium: -12.25

SMILES: CC(Cn1cccn1)NC(=O)N(C)Cc1ccc(Cl)s1 (configuration not stated)
Mtb cholesterol medium: -7.841
Mtb glucose medium: 17.39

SMILES: CC(=O)N1CCC2(CCCN(C(=O)c3ccccc3)C2)C1 (configuration not stated)
Mtb cholesterol medium: -9.834
Mtb glucose medium: -15.31

SMILES: [H][C@@]12CN(Cc3ccccn3)C(=O)N1CCN(C1CCC1)C2
Mtb cholesterol medium: 10.5
Mtb glucose medium: 10.29 and 7.688

SMILES: Cl.O=C(C1CCCCC1)N1CCC2(CC1)CNCc1ccccc12
Mtb cholesterol medium: 18.94
Mtb glucose medium: 5.072 and 1.672

SMILES: O=C(O)C(F)(F)F.[H][C@@]12CCN(c3nncs3)[C@@]1([H])CCN2C(=O)C1CCOCC1
Mtb cholesterol medium: 3.653
Mtb glucose medium: -5.344 and 6.74

SMILES: COCC(=O)NC1CC2(CCN(CC3CC3)CC2)Oc2ccccc21.O=C(O)C(F)(F)F (configuration not stated)
Mtb cholesterol medium: -19.09
Mtb glucose medium: -18.65

SMILES: CN(C)C(=O)C1CN(Cc2ccsc2)Cc2ccnn2C1.O=C(O)C(F)(F)F (configuration not stated)
Mtb cholesterol medium: -11.4
Mtb glucose medium: -0.6693 and -16.34

SMILES: CC(CO)NC(=O)Nc1ccc(CC#N)cc1 (configuration not stated)
Mtb cholesterol medium: 6.282
Mtb glucose medium: 5.733 and 6.187

SMILES: C=C(C)CN(CC)C(=O)c1cc(F)ccc1NS(C)(=O)=O
Mtb cholesterol medium: -1.52 and 6.585
Mtb glucose medium: -3.551

SMILES: CCOC(=O)CNC(=O)NCc1cccn1Cc1ccccc1
Mtb cholesterol medium: -8.216
Mtb glucose medium: 17.87

SMILES: CC(C)(C)c1cnc(CN2CCC(NC(=O)Nc3ccccc3)CC2)o1
Mtb cholesterol medium: -3.065
Mtb glucose medium: -1.024

SMILES: CNc1nc2c(s1)C(c1ccc(Cl)cc1Cl)CC(=O)N2 (configuration not stated)
Mtb cholesterol medium: 4.449
Mtb glucose medium: 52.85

SMILES: CCS(=O)(=O)c1ccc(CNc2c(Cl)cccc2C#N)cc1
Mtb cholesterol medium: -4.101
Mtb glucose medium: 10.28

SMILES: COCCn1ccnc1C1CCCN(c2ncnc3c2CCC3)C1 (configuration not stated)
Mtb cholesterol medium: 9.2
Mtb glucose medium: -8.636

SMILES: CC(=O)Nc1cccc(C(=O)N(C)C(C)Cc2cc(C)ccn2)c1 (configuration not stated)
Mtb cholesterol medium: 22.22
Mtb glucose medium: 13.1 and 2.727

SMILES: [H][C@@]12CCN(Cc3cccnc3)[C@@]1([H])CCN2C(=O)Cc1cccs1
Mtb cholesterol medium: 5.305
Mtb glucose medium: 11.75

SMILES: CN1[C@@H](c2ccccc2)[C@@H](C(=O)NCc2ccncc2)C[C@@]1(C)C(=O)O
Mtb cholesterol medium: 21.85
Mtb glucose medium: -4.753

SMILES: CCn1c(C)nnc1Sc1nn2cc(C)nc2s1
Mtb cholesterol medium: -42.3
Mtb glucose medium: -25.04

SMILES: CC[C@@]1(O)CCN(C(=O)c2ccc(-c3cccc(F)c3)cc2)C[C@H]1O
Mtb cholesterol medium: -21.46
Mtb glucose medium: -0.9194 and -8.418

SMILES: O=C(O)C(F)(F)F.[H][C@@]12C[C@@H](OCc3ccccc3F)CN1CCN(C(=O)c1cnccn1)C2
Mtb cholesterol medium: 16.3
Mtb glucose medium: -1.723 and -4.609

SMILES: CC(NCCc1nccn1Cc1ccccc1)c1cccs1 (configuration not stated)
Mtb cholesterol medium: -11.78
Mtb glucose medium: -35.63 and 17.53

The last 2 entries again:

| SMILES | Mtb cholesterol medium | Mtb glucose medium |
|---|---|---|
| `O=C(O)C(F)(F)F.[H][C@@]12C[C@@H](OCc3ccccc3F)CN1CCN(C(=O)c1cnccn1)C2` | 16.3 | -1.723 and -4.609 |
| `CC(NCCc1nccn1Cc1ccccc1)c1cccs1` (configuration not stated) | -11.78 | -35.63 and 17.53 |

Data taken from ChEMBL document CHEMBL3988442, “University of Dundee, Small-Polar-MMV Screening Library” (2021).